Measured values reported in article PMC4725906.
No constants are given. Whether binding was seen depends on the method and setting. In cells and extracts the contact can be indirect. Some binding calls cover weakened binding; strength is not graded here. Tags and fused reporters may be left off the sequences shown.

Protein sequences, listed by entry. Tags and fused reporters are not part of them.
UniProt P48432: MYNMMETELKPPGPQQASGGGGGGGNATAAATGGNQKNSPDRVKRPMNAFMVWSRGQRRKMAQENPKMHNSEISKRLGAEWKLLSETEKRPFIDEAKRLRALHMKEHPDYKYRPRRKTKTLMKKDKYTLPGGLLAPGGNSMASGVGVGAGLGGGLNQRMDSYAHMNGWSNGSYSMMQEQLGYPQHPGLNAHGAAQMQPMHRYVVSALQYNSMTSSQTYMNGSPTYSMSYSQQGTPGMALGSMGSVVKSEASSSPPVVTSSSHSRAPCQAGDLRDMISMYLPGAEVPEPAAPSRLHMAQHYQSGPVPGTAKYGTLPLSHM

Biological target: T1, NANOG, C-terminal 3x FLAG tag (UniProt Q80Z64)
T1 sequence: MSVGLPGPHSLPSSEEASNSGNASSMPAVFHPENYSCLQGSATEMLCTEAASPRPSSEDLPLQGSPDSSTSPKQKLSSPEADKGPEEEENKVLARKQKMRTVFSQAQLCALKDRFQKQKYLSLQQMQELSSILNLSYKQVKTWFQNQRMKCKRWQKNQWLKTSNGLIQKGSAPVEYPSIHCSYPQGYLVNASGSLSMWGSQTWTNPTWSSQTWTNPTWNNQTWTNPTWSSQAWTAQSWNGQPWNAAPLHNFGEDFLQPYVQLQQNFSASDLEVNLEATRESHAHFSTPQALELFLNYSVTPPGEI
Experiment: co-IP; 293T cells co-transfected with E1A-FLAG or Nanog-FLAG plus Sox2-myc and Oct4-V5; lysis in 50 mM Tris-HCl pH 7.4, 0.1% IGEPAL CA-630, 5 mM EDTA, 150 mM NaCl, brief sonication; anti-FLAG antibody on Protein G Dynabeads overnight; washes with 125 mM NaCl; elution with 3x FLAG peptide; blots for FLAG, Myc and V5

binding: binds
Substance: SOX2, C-terminal 3x Myc tag (from UniProt P48432 1-319)
